Results are given in words; binding and its absence hold for the method and conditions named. For some of these results: In cells and extracts the contact can be indirect. Some binding calls cover weakened binding; strength is not graded here. Sequences can lack the tags named with a protein.
B1: 3xFlag-tagged NOP16 K29A (protein, UniProt Q9Y3C1 1-178)
chain: MPKAKGKTRRQKFGYSVNRKRLNRNARRAAAPRIECSHIRHAWDHAKSVRQNLAEMGLAVDPNRAVPLRKRKVKAMEVDIEERPKELVRKPYVLNDLEAEASLPEKKGNTLSRDLIDYVRYMVENHGEDYKAMARDEKNYYQDTPKQIRSKINVYKRFYPAEWQDFLDSLQKRKMEVE
B2: 3xFlag-tagged NOP16 K106A and K107A double mutant (protein, UniProt Q9Y3C1 1-178)
chain: MPKAKGKTRRQKFGYSVNRKRLNRNARRKAAPRIECSHIRHAWDHAKSVRQNLAEMGLAVDPNRAVPLRKRKVKAMEVDIEERPKELVRKPYVLNDLEAEASLPEAAGNTLSRDLIDYVRYMVENHGEDYKAMARDEKNYYQDTPKQIRSKINVYKRFYPAEWQDFLDSLQKRKMEVE
B3: 3xFLAG-tagged NOP16 (Nucleolar protein 16), wild type (protein, UniProt Q9Y3C1 1-178)
chain: MPKAKGKTRRQKFGYSVNRKRLNRNARRKAAPRIECSHIRHAWDHAKSVRQNLAEMGLAVDPNRAVPLRKRKVKAMEVDIEERPKELVRKPYVLNDLEAEASLPEKKGNTLSRDLIDYVRYMVENHGEDYKAMARDEKNYYQDTPKQIRSKINVYKRFYPAEWQDFLDSLQKRKMEVE
B4: 6xHis-tagged NOP16 (protein, UniProt Q9Y3C1 1-178)
chain: MPKAKGKTRRQKFGYSVNRKRLNRNARRKAAPRIECSHIRHAWDHAKSVRQNLAEMGLAVDPNRAVPLRKRKVKAMEVDIEERPKELVRKPYVLNDLEAEASLPEKKGNTLSRDLIDYVRYMVENHGEDYKAMARDEKNYYQDTPKQIRSKINVYKRFYPAEWQDFLDSLQKRKMEVE

The chains behind the UniProt entries cited, without tags or fusion partners. Where a name states a change or a piece, a line headed by the entry shows the natural chain unless it says otherwise. Residues count along the entry.
UniProt O75530, whole entry: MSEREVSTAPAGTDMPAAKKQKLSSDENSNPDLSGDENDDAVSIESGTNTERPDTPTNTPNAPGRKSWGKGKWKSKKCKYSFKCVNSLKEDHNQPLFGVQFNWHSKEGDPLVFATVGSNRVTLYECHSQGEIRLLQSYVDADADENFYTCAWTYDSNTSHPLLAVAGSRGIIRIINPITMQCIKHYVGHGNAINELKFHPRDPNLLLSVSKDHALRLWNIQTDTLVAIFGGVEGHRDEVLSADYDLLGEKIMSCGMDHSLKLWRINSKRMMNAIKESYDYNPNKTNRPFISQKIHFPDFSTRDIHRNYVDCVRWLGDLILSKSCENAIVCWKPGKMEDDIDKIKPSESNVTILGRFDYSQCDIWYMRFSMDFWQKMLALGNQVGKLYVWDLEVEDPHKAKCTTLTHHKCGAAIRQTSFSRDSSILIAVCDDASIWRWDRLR
UniProt O15550, whole entry: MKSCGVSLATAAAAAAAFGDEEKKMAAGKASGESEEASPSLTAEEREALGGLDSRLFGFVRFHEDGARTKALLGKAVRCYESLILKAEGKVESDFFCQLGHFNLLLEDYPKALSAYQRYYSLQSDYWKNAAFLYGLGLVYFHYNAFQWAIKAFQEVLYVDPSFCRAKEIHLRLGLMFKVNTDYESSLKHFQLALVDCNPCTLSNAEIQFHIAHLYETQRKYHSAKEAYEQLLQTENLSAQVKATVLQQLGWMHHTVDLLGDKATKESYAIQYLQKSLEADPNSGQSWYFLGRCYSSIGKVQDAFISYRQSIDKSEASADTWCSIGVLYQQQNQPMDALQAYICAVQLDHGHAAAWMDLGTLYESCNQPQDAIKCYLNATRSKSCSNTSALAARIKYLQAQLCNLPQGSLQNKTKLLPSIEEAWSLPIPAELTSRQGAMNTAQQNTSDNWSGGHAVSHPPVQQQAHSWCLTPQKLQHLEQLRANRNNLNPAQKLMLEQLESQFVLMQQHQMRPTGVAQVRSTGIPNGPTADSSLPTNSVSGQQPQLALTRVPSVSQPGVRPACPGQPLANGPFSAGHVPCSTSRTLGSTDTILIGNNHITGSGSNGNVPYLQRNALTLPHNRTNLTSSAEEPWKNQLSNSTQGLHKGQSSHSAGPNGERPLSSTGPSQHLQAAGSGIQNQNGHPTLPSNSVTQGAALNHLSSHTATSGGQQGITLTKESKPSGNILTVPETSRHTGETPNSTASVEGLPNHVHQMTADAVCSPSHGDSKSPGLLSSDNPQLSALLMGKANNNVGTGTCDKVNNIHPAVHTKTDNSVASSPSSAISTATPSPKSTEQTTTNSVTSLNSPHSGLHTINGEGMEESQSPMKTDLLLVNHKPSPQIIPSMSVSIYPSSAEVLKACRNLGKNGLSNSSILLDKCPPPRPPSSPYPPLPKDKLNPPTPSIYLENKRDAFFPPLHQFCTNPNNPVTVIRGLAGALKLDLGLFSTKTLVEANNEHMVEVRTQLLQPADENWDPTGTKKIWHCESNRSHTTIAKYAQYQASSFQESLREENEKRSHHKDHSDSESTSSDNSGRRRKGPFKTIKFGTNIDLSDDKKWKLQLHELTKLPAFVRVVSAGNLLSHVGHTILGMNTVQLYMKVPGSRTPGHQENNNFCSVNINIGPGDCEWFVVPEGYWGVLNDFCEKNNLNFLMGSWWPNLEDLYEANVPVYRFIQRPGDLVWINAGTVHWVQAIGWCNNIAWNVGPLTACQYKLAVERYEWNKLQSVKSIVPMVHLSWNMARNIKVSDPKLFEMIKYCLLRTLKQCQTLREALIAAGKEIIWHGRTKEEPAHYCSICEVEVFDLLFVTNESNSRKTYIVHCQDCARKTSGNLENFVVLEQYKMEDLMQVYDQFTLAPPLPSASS
UniProt O15054, 1339-1502: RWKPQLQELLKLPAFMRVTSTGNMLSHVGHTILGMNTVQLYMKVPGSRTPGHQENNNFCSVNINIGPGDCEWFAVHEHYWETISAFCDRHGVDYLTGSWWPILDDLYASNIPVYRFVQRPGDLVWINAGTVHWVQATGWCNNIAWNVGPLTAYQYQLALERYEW
UniProt O15054, whole entry: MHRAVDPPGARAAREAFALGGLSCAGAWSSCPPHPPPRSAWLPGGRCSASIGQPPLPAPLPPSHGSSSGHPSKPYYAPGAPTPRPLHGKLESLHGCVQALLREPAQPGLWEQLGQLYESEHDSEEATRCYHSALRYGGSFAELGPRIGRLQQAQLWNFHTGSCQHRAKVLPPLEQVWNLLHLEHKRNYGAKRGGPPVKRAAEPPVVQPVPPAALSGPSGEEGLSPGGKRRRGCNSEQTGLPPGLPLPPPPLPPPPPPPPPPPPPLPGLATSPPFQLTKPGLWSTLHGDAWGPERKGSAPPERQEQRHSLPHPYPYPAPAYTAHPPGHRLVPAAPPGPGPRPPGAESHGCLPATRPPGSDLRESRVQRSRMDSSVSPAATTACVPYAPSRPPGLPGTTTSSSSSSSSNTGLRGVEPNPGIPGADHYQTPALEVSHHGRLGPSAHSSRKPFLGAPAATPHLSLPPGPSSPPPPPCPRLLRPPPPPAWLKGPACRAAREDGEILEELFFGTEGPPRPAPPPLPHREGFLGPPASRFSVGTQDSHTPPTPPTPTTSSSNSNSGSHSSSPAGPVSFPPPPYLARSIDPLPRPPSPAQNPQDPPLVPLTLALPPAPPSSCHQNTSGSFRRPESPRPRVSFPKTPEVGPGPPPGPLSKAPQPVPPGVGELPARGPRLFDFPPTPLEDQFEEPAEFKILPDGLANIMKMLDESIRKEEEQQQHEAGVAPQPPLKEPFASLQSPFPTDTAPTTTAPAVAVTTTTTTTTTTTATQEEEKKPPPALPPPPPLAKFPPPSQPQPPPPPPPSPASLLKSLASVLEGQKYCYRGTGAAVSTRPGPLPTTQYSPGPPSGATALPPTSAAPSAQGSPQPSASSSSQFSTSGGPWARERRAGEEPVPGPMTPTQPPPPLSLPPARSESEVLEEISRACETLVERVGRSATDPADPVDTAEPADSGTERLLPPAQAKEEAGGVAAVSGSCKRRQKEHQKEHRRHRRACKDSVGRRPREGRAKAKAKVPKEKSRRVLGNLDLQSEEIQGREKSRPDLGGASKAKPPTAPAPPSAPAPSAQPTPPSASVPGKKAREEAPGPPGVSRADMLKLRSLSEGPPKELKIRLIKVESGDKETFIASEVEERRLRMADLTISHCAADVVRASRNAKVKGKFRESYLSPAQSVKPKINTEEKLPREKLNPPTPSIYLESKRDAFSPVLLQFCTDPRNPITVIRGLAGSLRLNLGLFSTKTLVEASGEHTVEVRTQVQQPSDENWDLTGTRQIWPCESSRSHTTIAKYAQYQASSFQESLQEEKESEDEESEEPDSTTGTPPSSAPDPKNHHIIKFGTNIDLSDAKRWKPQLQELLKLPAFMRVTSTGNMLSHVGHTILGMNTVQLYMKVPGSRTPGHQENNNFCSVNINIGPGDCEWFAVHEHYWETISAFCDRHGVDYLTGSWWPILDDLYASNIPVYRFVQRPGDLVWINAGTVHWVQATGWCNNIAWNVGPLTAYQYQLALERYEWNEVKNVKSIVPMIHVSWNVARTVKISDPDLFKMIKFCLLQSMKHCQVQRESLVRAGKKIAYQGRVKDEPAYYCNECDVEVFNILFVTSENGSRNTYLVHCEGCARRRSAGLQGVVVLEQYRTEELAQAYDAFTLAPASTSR

Legend:
[1] = target: HA-tagged EED, wild type (human) (UniProt O75530); experiment: co-IP
HA-tagged UTX = HA-tagged UTX (UniProt O15550); experiment: co-IP
HA-tagged JMJD3 = HA-tagged JMJD3 (UniProt O15054); experiment: co-IP
[2] = target: HA-tagged EED WD40 domain mutant W364A (human) (UniProt O75530); experiment: co-IP
[3] = target: JMJD3 JmjC domain (in vitro pull-downs) (UniProt O15054); experiment: pull-down

Binder | binding [1] | binding (HA-tagged UTX) | binding (HA-tagged JMJD3) | binding [2] | binding [3]
B1 | binds |  |  |  | 
B2 | binds |  |  |  | 
B3 | binds | no binding | binds | no binding | 
B4 |  |  |  |  | binds
